Results published in patent publication US3966744A, “Spin labeled compounds” (priority 1974, dated 1976).

System: antibody (cocaine assay)
Assay: Second cocaine spin immunoassay (spin label of Example 7.2)
Details: eleven urine samples of donors who had snuffed cocaine within 12 to 24 hours

## COC(=O)[C@H]1[C@@H](OC(=O)c2ccccc2)C[C@@H]2CC[C@H]1N2C [cocaine]
  samples remaining positive by the cocaine assay after freezing and thawing: Only one remained positive by the cocaine assay
